The record followed here is article PMC10552892, “Ebselen oxide and derivatives are new allosteric HER2 inhibitors for HER2‐positive cancers” (Molecular Oncology, 2023).

The assay deals with T1, biotinylated peptide derived from HER2 cytosolic juxtamembrane region (human).
T1 sequence (peptide, biotin (position not stated)): ILIKRRQQKIRKYTMRRL

No constants are given. Whether binding was seen depends on the method and setting. Binding can be weak; no strength is given.

Regarding “N-terminal FERM domain of ezrin, GST fusion (domain or fragment)”, the binding result is reported as “binds”.
